Reference: US20110112100A1, “Hepatitis C Virus Inhibitors” (priority 2009, published 2011)
Where a name gives a salt, the structure may show the parent alone. Some entries share one result that the patent states for a list of compounds.

Each compound was assayed on 1b (con1) replicon cells (assay: Compound induced cytotoxicity in HCV replicon cell lines (WST-1 reagent)). Settings: WST-1, 48 hours; in 1 experiment.
Format: cell-based
Description: Test compounds were solubilised to 4 mM in 100% DMSO. Dilutions were made to the desired starting concentration in 100% DMSO and then 1 in 3 dilutions made, again in 100% DMSO. 0.5 μl of each sample was added to 384-well assay plates. White Lumitrac (Greiner) plates were used for the 1a and 1b replicon assays and black, clear bottomed (Greiner) plates were used for the WST-1 cytotoxity assay.
1b (con1) replicon cells were resuspended to a concentration of 1.4×10^5 cells/ml by addition of pre-warmed medium (DMEM+10% FCS). 50 μl of this suspension was added to each well of a 384-well assay plate (Black, clear bottomed, Greiner) already containing 0.5 μl of test compound.
All plates were covered with gas permeable seals and incubated at 37° C., 5% CO2 for 48 hours. After 48 hours, 5 μl WST-1 reagent (Roche, 11 644 807 001) was added to each well and the plate returned to the incubator for 3 hours. After this incubation period absorbance was read at 450 nm on an EnVision (Perkin Elmer) plate reader. The half maximal cytotoxic concentration (CC50) values were calculated for each compound by constructing log concentration-response curves.
All of the exemplified compounds have been screened in a cell proliferation assay (WST-1). A majority have […] in at least 2 independent experiments, the exceptions being the compounds of examples 1, 10, 12, 23, 25, 37, 47, 48, 49, 52, 56, 57, 58, 60, 67, 68, 69, 70, 71, 72, 73, 74, 79, 81 and 84 which have CC50 values>2 μM in 1 experiment, and example 20 where the CC50 is reported as >10 nM (in this instance the top concentration tested in the assay was 10 nM).

Compound | CC50
COC(=O)N[C@@H](COCc1ccccc1)C(=O)N1CCC[C@H]1c1ncc(-c2ccc3nc(-c4ccc(-c5c[nH]c([C@@H]6CCCN6C(=O)[C@@H](NC(=O)OC)C(C)C)n5)cc4)cnc3c2)[nH]1 [Example 48, Methyl {(2S)-1-[(2S)-2-{4-[4-(6-{2-[(2S)-1-{(2S)-3-(benzyloxy)-2-[(methoxycarbonyl)amino]propanoyl}pyrro-lidin-2-yl]-1H-imidazol-5-yl}quinoxalin-2-yl)phenyl]-1H-imidazol-2-yl}pyrrolidin-1-yl]-3-methyl-1-oxobutan-2-yl}carbamate carbamate trifluoroacetic acid salt] | > 2 µM
COC(=O)N[C@@H](C)C(=O)N1CCC[C@H]1c1ncc(-c2ccc3nc(-c4ccc(-c5c[nH]c([C@@H]6CCCN6C(=O)[C@@H](NC(=O)OC)C(C)C)n5)cc4)cnc3c2)[nH]1 [Example 57, Methyl {(2S)-1-[(2S)-2-(4-{4-[6-(2-{(2S)-1-[N-(methoxycarbonyl)-L-alanyl]pyrrolidin-2-yl}-1H-imidazol-5-yl)quinoxalin-2-yl]phenyl}-1H-imidazol-2-yl)pyrrolidin-1-yl]-3-methyl-1-oxobutan-2-yl} carbamate trifluoroacetic acid salt] | > 2 µM
COC(=O)N[C@@H](CC(C)C)C(=O)N1CCC[C@H]1c1ncc(-c2ccc3nc(-c4ccc(-c5c[nH]c([C@@H]6CCCN6C(=O)[C@@H](NC(=O)OC)C(C)C)n5)cc4)cnc3c2)[nH]1 [Example 68, Methyl {(2S)-1-[(2S)-2-{5-[2-(4-{2-[(2S)-1-{(2S)-2-[(methoxycarobnyl)amino]-3-methylbutanoyl}pyrrolidin-2-yl]-1H-imidazol-4-yl}phenyl)quinoxalin-6-yl]-1H-imidazol-2-yl}pyrrolidin-1-yl]-4-methyl-1-oxopentan-2-yl}carbamate trifluoroacetic acid salt] | > 2 µM
Methyl {(2S)-1-[(2S)-2-{4-[4-(6-{2-[(2S)- 1-{(2S)-3-tert-butoxy-2-[(methoxy carbonyl)amino]propanoyl}pyrrolidin-2- yl]-1H-imidazol-5-yl}quinoxalin-2-yl) phenyl]-1H-imidazol-2-yl}pyrrolidin-1-yl]- 3-methyl-1-oxobutan-2-yl}carbamate trifluoroacetic acid salt [Example 81] | > 2 µM
